Source: PubChem BioAssay AID1671195 (Yale University, 2021)
The whole screen tested about 22,000 reagents; shown is an unselected part. Of all reagents, about 1,510 (6.9%) are marked active. 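Active includes knockdowns raising or lowering LDL uptake; positive z-scores mean more uptake, negative mean less.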 Entries without a mark were called inactive.

- Aim: 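Knockdowns that increase or decrease uptake of fluorescent LDL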 (primary screen)
- Cells: human Huh7 hepatoma cells
- Reagent: siRNA pool against human genes, 18 nM
- Duration: about 2 to 2.5 days of knockdown, then 8 h LDL uptake
- Conditions: DiI-labelled LDL at 30 µg/ml for 8 h, in lipoprotein-deficient serum medium
- Detection: 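Fluorescent LDL signal imaged in cells, scaled to the plate median, robust z-score for each replicate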
- Direction: robust z-score: higher = more LDL uptake after knockdown
- Active means: 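a gene counts as active if at least two replicate z-scores exceed ±2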

no.	Target gene	robust z-score, replicate 1	robust z-score, replicate 2	robust z-score, replicate 3
1	SPTLC1 (GeneID 10558)	-0.717	-0.543	-0.308
2	RSPH1 (GeneID 89765)	0.385	0.704	1.06
3	CLDN10 (GeneID 9071)	2.11	1.4	1.44
4	PYGO2 (GeneID 90780)	1.52	1.39	1.88
5	HBM (GeneID 3042)	2.69	-0.323	-2.67
6	OR1B1 (GeneID 347169)	1.16	0.572	0.786
7	RNF43 (GeneID 54894)	0.596	-0.113	0.5
8	LOC442226 (retired record) (GeneID 442226)	-0.855	-1.51	-0.77
9	PCDHA7 (GeneID 56141)	-0.987	-0.606	-0.472
10	CCDC63 (GeneID 160762)	0.708	0.778	0.556
11	DSCAM (GeneID 1826)	-0.848	0.252	0.102
12	CHD1L (GeneID 9557)	0.101	-0.484	0.516
13	WIPI1 (GeneID 55062)	0.684	1.09	1.51
14	CEP20 (GeneID 123811)	-1.41	-1.64	-1.32
15	ERAL1 (GeneID 26284)	-1.25	-1.1	-0.391
16	HTR1A (GeneID 3350)	0.198	-1.01	0.459
17	PPL (GeneID 5493)	-1.18	0.945	-1.23
18	LTC4S (GeneID 4056)	1.29	-0.644	-0.141
19	TXLNB (GeneID 167838)	-0.245	-1.43	-1.01
20	SYCE1 (GeneID 93426)	1.31	1.18	0.714
21	PLPPR4 (GeneID 9890)	1.49 (active)	3.53	3.31
22	TEX29 (GeneID 121793)	1.2	0.621	1.18
23	XRCC4 (GeneID 7518)	0.453	2.14	1.62
24	FYB1 (GeneID 2533)	0.0764	-0.67	-0.106
25	E2F7 (GeneID 144455)	0.395	1.5	1.57
26	WWC3 (GeneID 55841)	0.397	0.226	0.351
27	INTS6 (GeneID 26512)	0.503	0.383	0.574
28	KRTAP4-1 (GeneID 85285)	5.34 (active)	3.08	5.91
29	FAM170B (GeneID 170370)	-0.779	-0.607	-0.463
30	PHLDA3 (GeneID 23612)	1.09	-0.327	-0.0163
31	RELT (GeneID 84957)	-0.0735	-0.141	-0.614
32	DOCK8-AS1 (GeneID 157983)	0.0287	0.159	-0.405
33	L3MBTL3 (GeneID 84456)	4.91 (active)	4.96	4.21
34	ANPEP (GeneID 290)	-0.193	0.659	0.286
35	DDX56 (GeneID 54606)	-1.74	-0.593	-0.123
36	GREB1 (GeneID 9687)	-0.885	-0.649	-2.09
37	LRP6 (GeneID 4040)	-0.304	0.045	-0.127
38	PTRH1 (GeneID 138428)	0.86	0.705	0.982
39	LGALS4 (GeneID 3960)	-0.711	0.85	0.0431
40	TRIM60 (GeneID 166655)	1.77	-0.733	0.113
41	TNFSF11 (GeneID 8600)	-0.2	-0.493	-0.334
42	DCAF4 (GeneID 26094)	-1.55	-0.4	0.0328
43	BLVRB (GeneID 645)	0.303	0.00909	0.174
44	YTHDF1 (GeneID 54915)	-0.786	-0.358	0.0982
45	IL11 (GeneID 3589)	0.154	-0.173	-0.229
46	LOC401442 (GeneID 401442)	0.436	0.337	0.689
